The assay concerns the target GST-fused CBP deletion mutant, C/H3 domain (Lane 5). Briefly: pull-down.

No constants are given. Whether binding was seen depends on the method and setting. In cells and extracts the contact can be indirect. Binding calls can cover weak binding; strength is not graded here.

B1: endogenous STAT6 (protein, UniProt P52633 1-837)
chain: MSLWGLISKMSPEKLQRLYVDFPQRLRHLLADWLESQPWEFLVGSDAFCYNMASALLSATVQRLQATAGEQGKGNSILPHISTLESIYQRDPLKLVATIRQILQGEKKAVIEEFRHLPGPFHRKQEELKFTTALGRLQHRVRETRLLRESLQQGAKTGQVSLQNLIDPPVNGPGPSEDLATMLQGTVGDLEATQALVLKRIQIWKRQQQLAGNGTPFEESLAGLQERCESLVEIYSQLQQEIGAASGELEPKTRASLISRLDEVLRTLVTSSFLVEKQPPQVLKTQTKFQAGVRFLLGLQFLGTSAKPPMVRADMVTEKQARELSLAQGPGTGVESTGEIMNNTVPLENSIPSNCCSALFKNLLLKKIKRCERKGTESVTEEKCAVLFSTSFTLGPNKLLIQLQALSLPLVVIVHGNQDNNAKATILWDNAFSEMDRVPFVVAERVPWEKMCETLNLKFMAEVGTSRGLLPEHFLFLAQKIFNDNSLSVEAFQHRCVSWSQFNKEILLGRGFTFWQWFDGVLDLTKRCLRSYWSDRLIIGFISKQYVTSLLLNEPDGTFLLRFSDSEIGGITIAHVIRGQDGSSQIENIQPFSAKDLSIRSLGDRIRDLAQLKNLYPKKPKDEAFRSHYKPEQMGKDGRGYVSTTIKMTVERDQPLPTPEPQMPAMVPPYDLGMAPDASMQLSSDMGYPPQSIHSFQSLEESMSVLPSFQEPHLQMPPNMSQITMPFDQPHPQGLLQCQSQEHAVSSPEPMLCSDVTMVEDSCLTQPVGGFPQGTWVSEDMYPPLMPPTEQDLTKLLLENQGEAGGSLGSQPLLQPSPYGQSGISLSHLDLRTNPSW
Consider B1, for which the binding entry is “binds”.

(Values after paper doi:10.1101/2023.05.23.542025.)
